Values from PubChem BioAssay AID1259254 (NCATS, 2017)
Shown is one part, drawn at random, of about 59,000 reagents. About 1,550 of them (2.6%) were called active. 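G2 share is only a proxy for re-replication; each gene was hit by three separate siRNAs, and active genes were retested.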 Raw values are not corrected between plates. The numbers tell different reagents against one gene apart. Reagent sequences are not shown. The record does not give: the amount of reagent.

Assay: 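Finding genes that stop cells copying their DNA twice in one cycle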 (primary screen)
System: human HCT116 colorectal cancer cells
Reagent: single siRNA against human genes
Time to read-out: 3 days
Read-out: 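Imaged Hoechst DNA stain sorts each cell into a cycle phase by DNA amount; per plate, G2 fraction set to 0% for non-targeting and 100% for GMNN siRNA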
Direction: G2 robust z-score and G2 cells, % of GMNN control: higher = more G2 cells, more excess DNA replication; raw share of cells in G2: higher = larger share of cells with G2 DNA content
Call rule: 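An siRNA counts as active if its G2 robust z-score lies at least 5 MADs above the screen median; here such calls match roughly 38% of GMNN control or more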

The first 3 records, ahead of the listing:
| gene | reagent | G2 robust z-score | G2 cells, % of GMNN control | raw share of cells in G2 (%) | Call |
| --- | --- | --- | --- | --- | --- |
| TMEFF2 | 1 | -1.24 | -5.79 | 1.28 | inactive |
| TMEFF2 | 2 | -1.03 | -4.27 | 2.81 | inactive |
| TMEFF2 | 3 | 0.142 | 3.96 | 5.66 | inactive |

The listing, from the first entry:
| gene | reagent | G2 robust z-score | G2 cells, % of GMNN control | raw share of cells in G2 (%) | Call |
| --- | --- | --- | --- | --- | --- |
| TMEFF2 | 1 | -1.24 | -5.79 | 1.28 | inactive |
| TMEFF2 | 2 | -1.03 | -4.27 | 2.81 | inactive |
| TMEFF2 | 3 | 0.142 | 3.96 | 5.66 | inactive |
| SCARF2 (scavenger receptor class F member 2) | 1 | -0.0488 | 2.62 | 5.47 | inactive |
| SCARF2 (scavenger receptor class F member 2) | 2 | -0.609 | -1.31 | 5.06 | inactive |
| SCARF2 (scavenger receptor class F member 2) | 3 | -0.514 | -0.651 | 4.69 | inactive |
| MAFK (MAF bZIP transcription factor K) | 1 | -0.688 | -1.87 | 4.81 | inactive |
| MAFK (MAF bZIP transcription factor K) | 2 | 0.0878 | 3.58 | 5.66 | inactive |
| MAFK (MAF bZIP transcription factor K) | 3 | -0.399 | 0.159 | 4.32 | inactive |
| G3BP1 (G3BP stress granule assembly factor 1) | 1 | -0.463 | -0.288 | 3.75 | inactive |
| G3BP1 (G3BP stress granule assembly factor 1) | 2 | -0.636 | -1.51 | 5.04 | inactive |
| G3BP1 (G3BP stress granule assembly factor 1) | 3 | -1.64 | -8.59 | 3.09 | inactive |
| TBX20 (T-box transcription factor 20) | 1 | 3.91 | 30.5 | 15.4 | inactive |
| TBX20 (T-box transcription factor 20) | 2 | -0.728 | -2.15 | 3.44 | inactive |
| TBX20 (T-box transcription factor 20) | 3 | 5.7 | 43.1 | 25.3 | active |
| DDIAS (DNA damage induced apoptosis suppressor) | 1 | -0.366 | 0.392 | 3.72 | inactive |
| DDIAS (DNA damage induced apoptosis suppressor) | 2 | -1.01 | -4.11 | 1.72 | inactive |
| DDIAS (DNA damage induced apoptosis suppressor) | 3 | -0.725 | -2.13 | 2.51 | inactive |
| CHST5 (carbohydrate sulfotransferase 5) | 1 | -0.12 | 2.13 | 7.22 | inactive |
| CHST5 (carbohydrate sulfotransferase 5) | 2 | -0.535 | -0.799 | 3.89 | inactive |
| CHST5 (carbohydrate sulfotransferase 5) | 3 | 1.5 | 13.5 | 8.49 | inactive |
| TRIM25 (tripartite motif containing 25) | 1 | 0.0418 | 3.26 | 5.48 | inactive |
| TRIM25 (tripartite motif containing 25) | 2 | 1.39 | 12.8 | 8.68 | inactive |
| TRIM25 (tripartite motif containing 25) | 3 | 0.5 | 6.49 | 8.34 | inactive |
| HERC6 | 1 | -0.401 | 0.149 | 4.49 | inactive |
| HERC6 | 2 | 1.03 | 10.2 | 8.59 | inactive |
| HERC6 | 3 | -0.49 | -0.481 | 6.22 | inactive |
| TBC1D9 (TBC1 domain family member 9) | 1 | 4.27 | 33 | 19.6 | inactive |
| TBC1D9 (TBC1 domain family member 9) | 2 | 0.929 | 9.51 | 7.34 | inactive |
| TBC1D9 (TBC1 domain family member 9) | 3 | -0.128 | 2.07 | 4.57 | inactive |
| SEBOX (SEBOX homeobox) | 1 | 1.81 | 15.7 | 12.7 | inactive |
| SEBOX (SEBOX homeobox) | 2 | -0.0634 | 2.52 | 5.94 | inactive |
| SEBOX (SEBOX homeobox) | 3 | -1.03 | -4.27 | 2.73 | inactive |
| MDC1 (mediator of DNA damage checkpoint 1) | 1 | 0.294 | 5.04 | 7.61 | inactive |
| MDC1 (mediator of DNA damage checkpoint 1) | 2 | 0.471 | 6.28 | 6.56 | inactive |
| MDC1 (mediator of DNA damage checkpoint 1) | 3 | -1.32 | -6.31 | 1.11 | inactive |
| TCAP (titin-cap) | 1 | -0.159 | 1.85 | 5.91 | inactive |
| TCAP (titin-cap) | 2 | 8.47 | 62.5 | 27.1 | active |
| TCAP (titin-cap) | 3 | -0.738 | -2.23 | 3.53 | inactive |
| WDR72 (WD repeat domain 72) | 1 | -0.287 | 0.95 | 3.92 | inactive |
| WDR72 (WD repeat domain 72) | 2 | -0.183 | 1.68 | 3.71 | inactive |
| WDR72 (WD repeat domain 72) | 3 | -0.25 | 1.21 | 3.58 | inactive |
| HILPDA (hypoxia inducible lipid droplet associated) | 1 | -0.553 | -0.927 | 3.5 | inactive |
| HILPDA (hypoxia inducible lipid droplet associated) | 2 | -0.0489 | 2.62 | 5.54 | inactive |
| HILPDA (hypoxia inducible lipid droplet associated) | 3 | 5.32 | 40.4 | 16 | active |
| GTF2H4 (general transcription factor IIH subunit 4) | 1 | 1.99 | 17 | 10.2 | inactive |
| GTF2H4 (general transcription factor IIH subunit 4) | 2 | 2.38 | 19.7 | 14.1 | inactive |
| GTF2H4 (general transcription factor IIH subunit 4) | 3 | 2.53 | 20.8 | 10.7 | inactive |
| POLB (DNA polymerase beta) | 1 | 0.756 | 8.29 | 6.9 | inactive |
| POLB (DNA polymerase beta) | 2 | 0.147 | 4 | 6.36 | inactive |
| POLB (DNA polymerase beta) | 3 | 1.56 | 13.9 | 10 | inactive |
| HSPA12B (heat shock protein family A (Hsp70) member 12B) | 1 | 0.501 | 6.49 | 5.32 | inactive |
| HSPA12B (heat shock protein family A (Hsp70) member 12B) | 2 | -0.0797 | 2.41 | 4 | inactive |
| HSPA12B (heat shock protein family A (Hsp70) member 12B) | 3 | -0.0689 | 2.48 | 4.4 | inactive |
| WDR5B (WD repeat domain 5B) | 1 | 3.78 | 29.6 | 14.2 | inactive |
| WDR5B (WD repeat domain 5B) | 2 | 0.104 | 3.7 | 5.83 | inactive |
| WDR5B (WD repeat domain 5B) | 3 | 0.22 | 4.52 | 4.68 | inactive |
| POLR1C (RNA polymerase I and III subunit C) | 1 | 1.75 | 15.3 | 8.42 | inactive |
| POLR1C (RNA polymerase I and III subunit C) | 2 | 0.874 | 9.12 | 8.65 | inactive |
| POLR1C (RNA polymerase I and III subunit C) | 3 | -0.0692 | 2.48 | 5.76 | inactive |
| EXOC8 (exocyst complex component 8) | 1 | -0.553 | -0.922 | 3.52 | inactive |
| EXOC8 (exocyst complex component 8) | 2 | 0.375 | 5.61 | 4.64 | inactive |
| EXOC8 (exocyst complex component 8) | 3 | 0.98 | 9.86 | 6.51 | inactive |
| ZNF556 (zinc finger protein 556) | 1 | 0.0552 | 3.36 | 3.98 | inactive |
| ZNF556 (zinc finger protein 556) | 2 | 1.21 | 11.5 | 11.1 | inactive |
| ZNF556 (zinc finger protein 556) | 3 | -1.24 | -5.74 | 1.83 | inactive |
| SPEM1 (spermatid maturation 1) | 1 | -1.06 | -4.46 | 2.45 | inactive |
| SPEM1 (spermatid maturation 1) | 2 | -0.499 | -0.541 | 3.02 | inactive |
| SPEM1 (spermatid maturation 1) | 3 | -0.0188 | 2.84 | 5.33 | inactive |
